Paper PMC7346168, “Redox Conformation-Specific Protein–Protein Interactions of the 2-Cysteine Peroxiredoxin in Arabidopsis” (Antioxidants, 2020)
Results are given in words; binding and its absence hold for the method and conditions named. For some assays here: Where a sequence is shown, tags or fusion partners need not be part of it.

T1: 2-cysteine peroxiredoxin A, wild type (2-CysPRXA WT) (Arabidopsis) (UniProt Q96291)
T1 sequence: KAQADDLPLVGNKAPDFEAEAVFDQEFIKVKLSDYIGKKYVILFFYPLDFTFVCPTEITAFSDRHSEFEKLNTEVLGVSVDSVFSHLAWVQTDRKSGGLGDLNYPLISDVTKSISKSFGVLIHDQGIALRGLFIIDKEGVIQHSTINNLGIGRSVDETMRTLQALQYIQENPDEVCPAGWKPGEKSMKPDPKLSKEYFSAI

T2: 2-CysPRXA C54S (pseudo-reduced variant) (Arabidopsis) (UniProt Q96291)
T2 sequence: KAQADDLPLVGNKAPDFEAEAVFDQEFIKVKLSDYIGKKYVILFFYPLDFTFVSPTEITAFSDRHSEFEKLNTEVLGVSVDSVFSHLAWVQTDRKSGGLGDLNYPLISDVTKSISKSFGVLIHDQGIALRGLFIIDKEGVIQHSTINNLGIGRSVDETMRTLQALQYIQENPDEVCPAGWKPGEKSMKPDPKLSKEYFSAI


How the values were obtained:
[1] = target: T1, 2-cysteine peroxiredoxin A, wild type (2-CysPRXA WT) (Arabidopsis); assay: ITC; CS, FD-GOGAT or ßCA1 injected into 2-CysPRXA WT or C54S; proteins redox-adjusted (10 mM DTT or 1 mM H2O2) and dialysed; 35 mM HEPES pH 8.0; redox state of these runs not told; both purified
[2] = target: T2, 2-CysPRXA C54S (pseudo-reduced variant) (Arabidopsis); assay: as above

binding [1] | binding [2] | Molecule
no binding |  | FERREDOXIN-… GLUTAMATE SYNTHASE 1, recombinant hisx6-tagged (from UniProt Q9ZNZ7 106-1622) (enzyme)
 | no binding | CHORISMATE SYNTHASE, recombinant hisx6-tagged (enzyme, UniProt P57720 51-436) TGSSYGTHFRVSTFGESHGGGVGCIIDGCPPRIPLTESDLQFDLDRRRPGQSRITTPRKETDTCRISSGVSEGMTTGTPIHVFVPNTDQRGLDYSEMSVAYRPSHADATYDMKYGVRSVQGGGRSSARETIGRVAPGALAKKILKQFAGTEILAYVSQVHHVVLPEELVDHENLTLEQIENNIVRCPNPEYAEKMIAAIDAVRTKGNSVGGVVTCIVRNAPRGLGTPVFDKLEAELAKACMSLPATKGFEFGSGFAGTFLTGLEHNDEFYTDENGRIRTRTNRSGGIQGGISNGEIINMRVAFKPTSTIGRKQNTVTRDKVETEMIARGRHDPCVVPRAVPMVEAMVALVLVDQLMAQYAQCHLFPINPELQEPLQIEQPQNATAL
